Measured values as given in patent US20050019854A1, “Novel method for screening inhibitors of the linkage between the neuronal nitric oxide synthase associated protein and the protein inhibiting neuronal nitric oxide synthase” (priority 2001, published 2005).
These are yes or no findings as the source states them, for the method shown. Some binding calls cover weakened binding; strength is not graded here.

Chains of the proteins cited; added tags and fusions are not shown.
UniProt P63170: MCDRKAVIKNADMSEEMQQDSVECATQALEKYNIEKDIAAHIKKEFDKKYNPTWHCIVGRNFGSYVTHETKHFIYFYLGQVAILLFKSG

What was measured:
[1] = molecular target: protein inhibitor of neuronal nitric oxide synthase (PIN), produced by thrombin digestion of GST-PIN (rat) (UniProt P63170); experiment: SPR competition
[2] = molecular target: GST-PIN (PIN with a glutathione S-transferase tag in the N-terminal position) (rat) (UniProt P63170); experiment: competition ELISA
[3] = molecular target: protein inhibitor of neuronal nitric oxide synthase (PIN), produced by thrombin digestion of GST-PIN (rat) (UniProt P63170); experiment: SPR, peptide immobilized on CM5, PIN injected
[4] = molecular target: protein inhibitor of neuronal nitric oxide synthase (PIN), produced by thrombin digestion of GST-PIN (rat) (UniProt P63170); experiment: SPR

## IDVGIQVDWD (Synthetic 10-mer) [mutant nNOS peptide represented by sequence SEQ ID NO: 4 (Ile-Asp-Val-Gly-Ile-Gln-Val-Asp-Trp-Asp)]
[1]
  binding: binds
[2]
  binding: binds

B1: mutant nNOS peptide represented by sequence SEQ ID NO: 3 (Lys-Asp-Thr-Gly-Ile-Gln-Val-Asp-Trp-Asp) (peptide)
peptide: KDTGIQVDWD
notes: Synthetic 10-mer; It differs from the normal peptide by Arg to Trp at position 9
[3]
  binding: binds
[4]
  binding: binds
[1]
  binding: binds
[2]
  binding: binds

B2: normal (non-mutant) nNOS peptide Lys Asp Thr Gly Ile Gln Val Asp Arg Asp (nNOS amino acids 229-238) (peptide)
peptide: KDTGIQVDRD
notes: Made by Fmoc solid phase synthesis; also called normal peptide; normal nNOS peptide
[3]
  binding: binds
